Library screen at single concentrations

Each number is a percent effect as filed. The record does not define 0% and 100%; most values in the screen are far below 50% and negative numbers occur (in some assays of this library far below -100). The compounds are a random part of those screened.

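Assay of Toxoplasma gondii numbers, read through their beta-galactosidase reporter with a colour substrate. Tested at 50 µM. The record gives no direction; the compounds picked for IC50 retests had high values, so higher reads as fewer parasites. Of about 18,000 compounds tested this way, about 170 (0.94%) reached 50% or more in at least one test.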

compound: Cc1cnc(C#N)cc1Cl
Percent Effect: -12.52%

compound: O=C(CC1CCCC1)NCC1CCCCC(=O)N1 (stereo not given)
Percent Effect: 1.893%

compound: Cc1ccc(C(=O)NCCSc2nncn2C)s1
Percent Effect: -0.7517%

compound: Cc1c(S(=O)(=O)Nc2cccc(F)c2)cnn1C
Percent Effect: -8.725%

compound: CS(=N)(=O)c1ccccc1Br (stereo not given)
Percent Effect: -1.68%

compound: O=C1NCCCCC1NS(=O)(=O)N1CCOCC1 (stereo not given)
Percent Effect: 3.429%

compound: CCCNC(=O)NC(=O)COC(=O)c1cnc(C)cn1
Percent Effect: 0.2391%

compound: O=C(Nc1cccc(CO)n1)Nc1ccccc1Cl
Percent Effect: -13.88%

compound: CC(C(=O)NCCc1ccc(O)cc1)n1cccn1 (stereo not given)
Percent Effect: 0.1992%

compound: CC(CNC(=O)c1cccc(F)c1)N1CCN(C)CC1 (stereo not given)
Percent Effect: -1.532%

compound: COCCNC(=O)c1cc2ccccc2[nH]1
Percent Effect: 7.304%

compound: Cn1c(CNC(=O)C2CCCOC2)nnc1C1CCC1 (stereo not given)
Percent Effect: -5.619%

compound: O=C(Nc1nc(-c2ccsc2)ns1)C1CCCN1 (stereo not given)
Percent Effect: -13.26%

compound: COc1cc(CCNC(=O)C2CCCN2)ccc1F (stereo not given)
Percent Effect: -8.459%

compound: NCCNS(=O)(=O)c1ccc(F)c(C(F)(F)F)c1
Percent Effect: 7.681%

compound: Cc1cc(NC(=O)CCn2ccnc2)no1
Percent Effect: 4.909%

compound: Nc1ncccc1C(=O)NC1CCCCC1
Percent Effect: -8.029%

compound: NC(=O)CN1CCCN(c2nc3ccccc3o2)CC1
Percent Effect: -14.99%

compound: CS(=O)(=O)CC1(CNc2ncc(Br)cn2)CC1
Percent Effect: -3.231%

compound: CC1(CNC(=O)CCOc2ccccc2)COC1
Percent Effect: 9.468%

compound: NC(=O)CN1CCC(c2nc(C3CCOC3)no2)CC1 (stereo not given)
Percent Effect: -28.69%

compound: COc1ccc(C(=O)Nn2cnnc2)cc1OC
Percent Effect: -7.8%

compound: O=C(Nc1nnc[nH]1)c1ccc(N2CCOCC2)nc1
Percent Effect: -2.314%

compound: Nc1csc(-c2ccncc2)n1
Percent Effect: 39.67%

compound: CN(CCCOCc1ccccc1)C(N)=O
Percent Effect: -15.37%

compound: CNC(=O)CCCNC(=O)Nc1nc2ccccc2s1
Percent Effect: -9.806%

compound: CCc1ccc2c(c1)[C@@H](N)CCO2
Percent Effect: 23.81%

compound: CSCC(=O)NCc1ccc(C(=O)N(C)C)o1
Percent Effect: 7.946%

compound: C=C(C)COC(=O)c1ccc(-n2cncn2)cc1C
Percent Effect: -12.29%

compound: N[C@H]1CCCc2cc(F)ccc21
Percent Effect: 13.13%

compound: COc1cc(F)c(NC(=O)N2CCC(O)CC2)cc1F
Percent Effect: 5.359%

4 of the entries, repeated:

C=C(C)COC(=O)c1ccc(-n2cncn2)cc1C gave -12.29%.
CS(=O)(=O)CC1(CNc2ncc(Br)cn2)CC1 gave -3.231%.
CCCNC(=O)NC(=O)COC(=O)c1cnc(C)cn1 gave 0.2391%.
COCCNC(=O)c1cc2ccccc2[nH]1 gave 7.304%.

The values are deposited in ChEMBL (CHEMBL3988442, “University of Dundee, Small-Polar-MMV Screening Library” (2021)).